These are yes or no findings as the source states them, for the method shown.
Target: T1, P2-beta peptide (biotinylated)
T1 sequence (peptide, biotin (position not stated)): GSLEEIIAEGQKC
Assay: SEC; 2 uM biotinylated peptide incubated 30 min at RT with 4 uM purified Ssb1 in Ssb buffer (30 mM HEPES KOH pH 7.4, 50 mM KAc, 5 mM MgCl2, 1 mM beta-mercaptoethanol), then apyrase for 1 h; Superose 12; fractions dot-blotted, peptide detected with StrepTactin-HRP and Ssb with antibody; both …

Chains of the proteins cited; added tags and fusions are not shown.
UniProt P11484: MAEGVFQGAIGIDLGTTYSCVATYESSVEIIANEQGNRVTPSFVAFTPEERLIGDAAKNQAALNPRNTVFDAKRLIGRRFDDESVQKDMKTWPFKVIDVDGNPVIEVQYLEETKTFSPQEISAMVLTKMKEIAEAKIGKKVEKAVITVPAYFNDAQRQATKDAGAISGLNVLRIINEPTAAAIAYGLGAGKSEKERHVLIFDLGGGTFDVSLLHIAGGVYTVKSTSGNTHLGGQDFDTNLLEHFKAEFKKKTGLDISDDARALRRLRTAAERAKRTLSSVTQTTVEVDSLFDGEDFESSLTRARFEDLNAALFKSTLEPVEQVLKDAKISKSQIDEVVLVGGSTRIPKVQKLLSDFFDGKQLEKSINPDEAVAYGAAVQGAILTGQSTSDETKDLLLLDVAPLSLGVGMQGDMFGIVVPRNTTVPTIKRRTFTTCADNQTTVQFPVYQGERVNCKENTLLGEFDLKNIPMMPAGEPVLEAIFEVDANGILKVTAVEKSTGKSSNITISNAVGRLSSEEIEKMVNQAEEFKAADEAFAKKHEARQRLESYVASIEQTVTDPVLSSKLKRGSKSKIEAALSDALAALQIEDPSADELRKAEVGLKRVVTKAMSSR

## Ssb1 (wild type, recombinant) (from UniProt P11484 1-613)
  binding: no binding (tested: 2 uM peptide, 4 uM Ssb1)
